Laboratory results: patent US20190135887A1 (UNIVERSITÉ DE STRASBOURG, priority 2016, published 2019)

Columns and labels:
[1] = general procedure: Fmoc solid-phase peptide synthesis; Rink resin; HBTU, HOBt, DIPEA; conditions: whole synthesis; for isolated yield: on resin loading
[2] = general procedure: Fmoc solid-phase peptide synthesis; Fmoc-protected Rink Amide NovaGel resin (0.7 mmol/g); Fmoc-protected Wang NovaGel resin (0.1 mmol/g); HBTU, HOBt, DIPEA; conditions: whole synthesis

Substance: CF3(CF2)7(CH2)2C(O)-Arg-Gly-Arg-Asn-Trp-Thr-Pro-Gln-Ala-Met-Leu-Tyr-Leu-Lys-Gly-Ala-Gln
- isolated yield ([1]; scale 29 μmol): 13%
- isolated mass ([1]; scale 29 μmol): 10.5 mg
- final HPLC purity ([2]; 220.8 nm): >95%

Substance: CF3(CF2)7(CH2)2C(O)-Asn-Trp-Thr-Pro-Gln-Ala-Met-Leu-Tyr-Leu-Lys-Gly-Ala-Gln
- isolated yield ([1]; scale 23 μmol): 14%
- isolated mass ([1]; scale 23 μmol): 6.9 mg
- final HPLC purity ([2]; 220 nm): >95%

Substance: Acetyl-Asn-Trp-Thr-Pro-Gln-Ala-Met-Leu-Tyr-Leu-Lys-Gly-Ala-Gln-Lys(C(O)(CH2)2(CF2)7CF3)
- isolated yield ([1]; scale 22 μmol): 8.6%
- isolated mass ([1]; scale 22 μmol): 4.5 mg
- final HPLC purity ([2]; 220 nm): >95%

Substance: Acetyl-Asn-Trp-Thr-Pro-Gln-Ala-Met-Leu-Tyr-Leu-Lys-Gly-Ala-Gln-Lys(Arg-Gly-Arg-(C(O)(CH2)2(CF2)7CF3))
- isolated yield ([1]; scale 21 μmol): 5.6%
- isolated mass ([1]; scale 21 μmol): 3.1 mg
- final HPLC purity ([2]; 220 nm): >95%

For part of these data: One purity is given for all peptides; the source may state it once.
